Measured values reported in doi:10.1101/264788.

By UniProt entry, the sequences of proteins in these tests, tags left out. Residues count along the entry.
UniProt P02545, residues 1-646: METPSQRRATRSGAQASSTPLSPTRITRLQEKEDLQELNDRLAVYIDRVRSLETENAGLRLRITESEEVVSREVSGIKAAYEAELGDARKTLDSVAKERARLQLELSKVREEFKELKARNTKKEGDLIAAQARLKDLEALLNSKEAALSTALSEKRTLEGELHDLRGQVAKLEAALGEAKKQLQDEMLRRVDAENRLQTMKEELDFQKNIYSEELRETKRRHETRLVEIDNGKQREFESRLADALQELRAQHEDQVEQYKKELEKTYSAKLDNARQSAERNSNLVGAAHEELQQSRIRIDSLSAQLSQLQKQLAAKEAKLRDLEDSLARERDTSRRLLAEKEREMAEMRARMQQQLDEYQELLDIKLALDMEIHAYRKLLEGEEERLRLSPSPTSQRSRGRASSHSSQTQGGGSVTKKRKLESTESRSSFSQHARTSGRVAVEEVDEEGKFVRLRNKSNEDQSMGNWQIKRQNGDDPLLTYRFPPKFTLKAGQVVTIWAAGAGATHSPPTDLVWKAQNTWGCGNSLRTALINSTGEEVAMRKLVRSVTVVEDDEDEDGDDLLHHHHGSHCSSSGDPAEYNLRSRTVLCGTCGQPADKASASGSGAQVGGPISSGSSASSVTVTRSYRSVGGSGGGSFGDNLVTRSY
UniProt P52294: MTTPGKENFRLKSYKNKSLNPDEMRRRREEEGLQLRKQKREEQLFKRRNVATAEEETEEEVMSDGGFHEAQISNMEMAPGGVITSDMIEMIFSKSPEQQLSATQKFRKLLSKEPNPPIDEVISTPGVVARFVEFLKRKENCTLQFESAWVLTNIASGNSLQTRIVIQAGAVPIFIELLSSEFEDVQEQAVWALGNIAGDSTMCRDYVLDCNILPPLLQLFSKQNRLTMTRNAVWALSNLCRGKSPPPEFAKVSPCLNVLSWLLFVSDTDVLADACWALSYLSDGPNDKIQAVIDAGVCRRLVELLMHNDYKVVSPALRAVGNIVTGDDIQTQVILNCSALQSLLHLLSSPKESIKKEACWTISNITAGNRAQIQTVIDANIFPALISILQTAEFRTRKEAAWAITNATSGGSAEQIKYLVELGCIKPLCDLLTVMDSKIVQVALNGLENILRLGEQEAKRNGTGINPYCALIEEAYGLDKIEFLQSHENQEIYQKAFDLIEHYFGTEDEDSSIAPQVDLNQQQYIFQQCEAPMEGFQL
UniProt Q14739: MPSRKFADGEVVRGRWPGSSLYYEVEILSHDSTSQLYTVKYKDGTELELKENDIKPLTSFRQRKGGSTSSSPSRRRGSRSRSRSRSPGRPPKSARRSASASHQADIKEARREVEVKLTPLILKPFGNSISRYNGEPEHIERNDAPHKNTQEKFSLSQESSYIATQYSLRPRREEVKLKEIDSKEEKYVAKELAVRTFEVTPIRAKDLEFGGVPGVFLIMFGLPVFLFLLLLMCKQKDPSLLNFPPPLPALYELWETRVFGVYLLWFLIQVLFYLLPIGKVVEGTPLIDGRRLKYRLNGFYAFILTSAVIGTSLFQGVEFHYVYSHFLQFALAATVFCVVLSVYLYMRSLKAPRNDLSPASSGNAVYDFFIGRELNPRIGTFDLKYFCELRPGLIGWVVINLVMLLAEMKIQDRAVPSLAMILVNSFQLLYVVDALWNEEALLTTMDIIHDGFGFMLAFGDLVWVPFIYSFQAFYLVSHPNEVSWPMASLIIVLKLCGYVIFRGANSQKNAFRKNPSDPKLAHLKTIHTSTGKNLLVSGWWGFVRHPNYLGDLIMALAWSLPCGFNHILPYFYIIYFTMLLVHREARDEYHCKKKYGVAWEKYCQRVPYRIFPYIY
UniProt P12270: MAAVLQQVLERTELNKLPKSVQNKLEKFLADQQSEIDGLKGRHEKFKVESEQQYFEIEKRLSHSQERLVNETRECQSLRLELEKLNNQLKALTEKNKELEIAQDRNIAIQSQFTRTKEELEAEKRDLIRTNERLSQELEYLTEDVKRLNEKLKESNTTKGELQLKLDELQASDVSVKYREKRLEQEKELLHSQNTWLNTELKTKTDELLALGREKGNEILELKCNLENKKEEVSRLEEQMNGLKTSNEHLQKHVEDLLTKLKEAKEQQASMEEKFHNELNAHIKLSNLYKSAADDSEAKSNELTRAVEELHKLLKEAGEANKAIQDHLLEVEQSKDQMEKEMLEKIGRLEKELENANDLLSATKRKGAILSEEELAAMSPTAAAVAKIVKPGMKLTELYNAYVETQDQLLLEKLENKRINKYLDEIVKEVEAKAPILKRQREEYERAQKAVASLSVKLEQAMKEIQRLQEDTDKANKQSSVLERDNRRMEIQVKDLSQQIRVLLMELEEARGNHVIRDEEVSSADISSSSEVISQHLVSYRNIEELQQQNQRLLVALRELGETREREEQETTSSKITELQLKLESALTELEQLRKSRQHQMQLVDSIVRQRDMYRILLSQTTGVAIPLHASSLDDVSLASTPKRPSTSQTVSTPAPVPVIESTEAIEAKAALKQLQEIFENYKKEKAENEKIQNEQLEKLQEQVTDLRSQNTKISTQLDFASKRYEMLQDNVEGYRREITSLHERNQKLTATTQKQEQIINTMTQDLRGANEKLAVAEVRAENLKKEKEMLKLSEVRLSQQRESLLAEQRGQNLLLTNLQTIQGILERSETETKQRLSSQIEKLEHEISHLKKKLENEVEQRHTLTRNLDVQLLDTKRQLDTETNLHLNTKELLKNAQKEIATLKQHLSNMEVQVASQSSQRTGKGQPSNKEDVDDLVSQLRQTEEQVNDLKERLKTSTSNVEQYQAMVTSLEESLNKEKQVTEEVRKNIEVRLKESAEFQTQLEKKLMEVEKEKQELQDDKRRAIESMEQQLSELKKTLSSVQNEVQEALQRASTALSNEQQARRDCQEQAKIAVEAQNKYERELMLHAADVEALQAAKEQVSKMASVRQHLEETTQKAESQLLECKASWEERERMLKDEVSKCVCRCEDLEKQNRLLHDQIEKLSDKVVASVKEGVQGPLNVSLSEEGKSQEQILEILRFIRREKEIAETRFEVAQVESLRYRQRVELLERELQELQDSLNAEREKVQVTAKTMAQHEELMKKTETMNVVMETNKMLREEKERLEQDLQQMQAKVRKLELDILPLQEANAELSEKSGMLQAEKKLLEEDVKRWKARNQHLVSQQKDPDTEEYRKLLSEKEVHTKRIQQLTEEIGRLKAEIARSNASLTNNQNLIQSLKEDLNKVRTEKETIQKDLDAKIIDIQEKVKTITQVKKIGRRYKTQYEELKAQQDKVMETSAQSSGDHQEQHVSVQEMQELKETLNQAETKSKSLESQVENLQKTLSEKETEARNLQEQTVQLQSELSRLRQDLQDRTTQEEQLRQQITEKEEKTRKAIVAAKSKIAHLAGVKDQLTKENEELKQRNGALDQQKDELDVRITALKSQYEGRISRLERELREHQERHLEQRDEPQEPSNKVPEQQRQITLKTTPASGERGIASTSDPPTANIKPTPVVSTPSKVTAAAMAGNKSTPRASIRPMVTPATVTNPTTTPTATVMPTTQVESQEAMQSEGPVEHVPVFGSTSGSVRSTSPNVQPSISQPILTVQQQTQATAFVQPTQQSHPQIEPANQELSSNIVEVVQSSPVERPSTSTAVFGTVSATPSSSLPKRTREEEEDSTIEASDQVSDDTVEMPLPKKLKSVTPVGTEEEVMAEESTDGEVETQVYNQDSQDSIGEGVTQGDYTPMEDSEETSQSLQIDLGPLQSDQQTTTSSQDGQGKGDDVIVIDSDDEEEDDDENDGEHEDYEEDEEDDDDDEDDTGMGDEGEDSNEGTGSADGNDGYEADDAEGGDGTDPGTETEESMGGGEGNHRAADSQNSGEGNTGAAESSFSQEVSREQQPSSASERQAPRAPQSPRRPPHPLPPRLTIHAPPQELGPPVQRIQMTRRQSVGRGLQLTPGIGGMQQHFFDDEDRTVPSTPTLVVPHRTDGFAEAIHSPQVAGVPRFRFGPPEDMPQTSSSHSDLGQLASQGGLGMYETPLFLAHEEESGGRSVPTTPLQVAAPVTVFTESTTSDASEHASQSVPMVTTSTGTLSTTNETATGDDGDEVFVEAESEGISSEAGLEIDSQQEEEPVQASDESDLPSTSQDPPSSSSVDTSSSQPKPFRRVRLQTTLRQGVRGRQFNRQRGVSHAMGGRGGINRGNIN

How the values were obtained:
[1] = biological target: Prelamin-A/C, MAC-tagged (human) (UniProt P02545); assay: affinity purification with mass spectrometry
[2] = biological target: Prelamin-A/C, MAC-tagged (human) (UniProt P02545); assay: proximity labelling

binding [1]: binds
binding [2]: binds
Molecule: importin subunit alpha IMA5 (from UniProt P52294 1-538)

binding [1]: binds
binding [2]: binds
Molecule: lamin-B receptor (from UniProt Q14739 1-615)

binding [1]: binds
binding [2]: binds
Molecule: importin subunit alpha IMA7 (from UniProt O60684 1-536)

binding [1]: binds
binding [2]: binds
Molecule: nucleoprotein TPR (from UniProt P12270 1-2363)

binding [1]: binds
binding [2]: binds
B1: lamin-B2 (protein, UniProt Q03252 1-620)
chain: MSPPSPGRRREQRRPRAAATMATPLPGRAGGPATPLSPTRLSRLQEKEELRELNDRLAHYIDRVRALELENDRLLLKISEKEEVTTREVSGIKALYESELADARRVLDETARERARLQIEIGKLRAELDEVNKSAKKREGELTVAQGRVKDLESLFHRSEVELAAALSDKRGLESDVAELRAQLAKAEDGHAVAKKQLEKETLMRVDLENRCQSLQEELDFRKSVFEEEVRETRRRHERRLVEVDSSRQQEYDFKMAQALEELRSQHDEQVRLYKLELEQTYQAKLDSAKLSSDQNDKAASAAREELKEARMRLESLSYQLSGLQKQASAAEDRIRELEEAMAGERDKFRKMLDAKEQEMTEMRDVMQQQLAEYQELLDVKLALDMEINAYRKLLEGEEERLKLSPSPSSRVTVSRATSSSSGSLSATGRLGRSKRKRLEVEEPLGSGPSVLGTGTGGSGGFHLAQQASASGSVSIEEIDLEGKFVQLKNNSDKDQSLGNWRIKRQVLEGEEIAYKFTPKYILRAGQMVTVWAAGAGVAHSPPSTLVWKGQSSWGTGESFRTVLVNADGEEVAMRTVKKSSVMRENENGEEEEEEAEFGEEDLFHQQGDPRTTSRGCYVM

binding [2]: binds
B2: NUP85 (protein, UniProt Q9BW27 1-656)
chain: MEELDGEPTVTLIPGVNSKKNQMYFDWGPGEMLVCETSFNKKEKSEMVPSCPFIYIIRKDVDVYSQILRKLFNESHGIFLGLQRIDEELTGKSRKSQLVRVSKNYRSVIRACMEEMHQVAIAAKDPANGRQFSSQVSILSAMELIWNLCEILFIEVAPAGPLLLHLLDWVRLHVCEVDSLSADVLGSENPSKHDSFWNLVTILVLQGRLDEARQMLSKEADASPASAGICRIMGDLMRTMPILSPGNTQTLTELELKWQHWHEECERYLQDSTFATSPHLESLLKIMLGDEAALLEQKELLSNWYHFLVTRLLYSNPTVKPIDLHYYAQSSLDLFLGGESSPEPLDNILLAAFEFDIHQVIKECSIALSNWWFVAHLTDLLDHCKLLQSHNLYFGSNMREFLLLEYASGLFAHPSLWQLGVDYFDYCPELGRVSLELHIERIPLNTEQKALKVLRICEQRQMTEQVRSICKILAMKAVRNNRLGSALSWSIRAKDAAFATLVSDRFLRDYCERGCFSDLDLIDNLGPAMMLSDRLTFLGKYREFHRMYGEKRFADAASLLLSLMTSRIAPRSFWMTLLTDALPLLEQKQVIFSAEQTYELMRCLEDLTSRRPVHGESDTEQLQDDDIETTKVEMLRLSLARNLARAIIREGSLEGS

binding [1]: binds
binding [2]: binds
B3: lamina-associated polypeptide 2B (protein, UniProt P42167)
chain: MPEFLEDPSVLTKDKLKSELVANNVTLPAGEQRKDVYVQLYLQHLTARNRPPLPAGTNSKGPPDFSSDEEREPTPVLGSGAAAAGRSRAAVGRKATKKTDKPRQEDKDDLDVTELTNEDLLDQLVKYGVNPGPIVGTTRKLYEKKLLKLREQGTESRSSTPLPTISSSAENTRQNGSNDSDRYSDNEEDSKIELKLEKREPLKGRAKTPVTLKQRRVEHNQSYSQAGITETEWTSGSSKGGPLQALTRESTRGSRRTPRKRVETSEHFRIDGPVISESTPIAETIMASSNESLVVNRVTGNFKHASPILPITEFSDIPRRAPKKPLTRAEVGEKTEERRVERDILKEMFPYEASTPTGISASCRRPIKGAAGRPLELSDFRMEESFSSKYVPKYVPLADVKSEKTKKGRSIPVWIKILLFVVVAVFLFLVYQAMETNQVNPFSNFLHVDPRKSN

binding [2]: binds
B4: NUP37 (protein, UniProt Q8NFH4 1-326)
chain: MKQDASRNAAYTVDCEDYVHVVEFNPFENGDSGNLIAYGGNNYVVIGTCTFQEEEADVEGIQYKTLRTFHHGVRVDGIAWSPETRLDSLPPVIKFCTSAADMKIRLFTSDLQDKNEYKVLEGHTDFINGLVFDPKEGQEIASVSDDHTCRIWNLEGVQTAHFVLHSPGMSVCWHPEETFKLMVAEKNGTIRFYDLLAQQAILSLESEQVPLMSAHWCLKNTFKVGAVAGNDWLIWDITRSSYPQNKRPVHMDRACLFRWSTISENLFATTGYPGKMASQFQIHHLGHPQPILMGSVAVGSGLSWHRTLPLCVIGGDHKLLFWVTEV

binding [1]: binds
binding [2]: binds
B5: lamina-associated polypeptide 2A (protein, UniProt P42166)
chain: MPEFLEDPSVLTKDKLKSELVANNVTLPAGEQRKDVYVQLYLQHLTARNRPPLPAGTNSKGPPDFSSDEEREPTPVLGSGAAAAGRSRAAVGRKATKKTDKPRQEDKDDLDVTELTNEDLLDQLVKYGVNPGPIVGTTRKLYEKKLLKLREQGTESRSSTPLPTISSSAENTRQNGSNDSDRYSDNEEGKKKEHKKVKSTRDIVPFSELGTTPSGGGFFQGISFPEISTRPPLGSTELQAAKKVHTSKGDLPREPLVATNLPGRGQLQKLASERNLFISCKSSHDRCLEKSSSSSSQPEHSAMLVSTAASPSLIKETTTGYYKDIVENICGREKSGIQPLCPERSHISDQSPLSSKRKALEESESSQLISPPLAQAIRDYVNSLLVQGGVGSLPGTSNSMPPLDVENIQKRIDQSKFQETEFLSPPRKVPRLSEKSVEERDSGSFVAFQNIPGSELMSSFAKTVVSHSLTTLGLEVAKQSQHDKIDASELSFPFHESILKVIEEEWQQVDRQLPSLACKYPVSSREATQILSVPKVDDEILGFISEATPLGGIQAASTESCNQQLDLALCRAYEAAASALQIATHTAFVAKAMQADISQAAQILSSDPSRTHQALGILSKTYDAASYICEAAFDEVKMAAHTMGNATVGRRYLWLKDCKINLASKNKLASTPFKGGTLFGGEVCKVIKKRGNKH

binding [2]: binds
B6: NUP43 (protein, UniProt Q8NFH3 1-380)
chain: MEEIYAKFVSQKISKTRWRPLPPGSLQTAETFATGSWDNEENYISLWSIGDFGNLDSDGGFEGDHQLLCDIRHHGDVMDLQFFDQERIVAASSTGCVTVFLHHPNNQTLSVNQQWTTAHYHTGPGSPSYSSAPCTGVVCNNPEIVTVGEDGRINLFRADHKEAVRTIDNADSSTLHAVTFLRTPEILTVNSIGQLKIWDFRQQGNEPSQILSLTGDRVPLHCVDRHPNQQHVVATGGQDGMLSIWDVRQGTMPVSLLKAHEAEMWEVHFHPSNPEHLFTCSEDGSLWHWDASTDVPEKSSLFHQGGRSSTFLSHSISNQANVHQSVISSWLSTDPAKDRIEITSLLPSRSLSVNTLDVLGPCLVCGTDAEAIYVTRHLFS

binding [2]: binds
B7: Nuclear pore complex protein Nup160 (protein, UniProt Q12769 1-1436)
chain: MLHLSAAPPAPPPEVTATARPCLCSVGRRGDGGKMAAAGALERSFVELSGAERERPRHFREFTVCSIGTANAVAGAVKYSESAGGFYYVESGKLFSVTRNRFIHWKTSGDTLELMEESLDINLLNNAIRLKFQNCSVLPGGVYVSETQNRVIILMLTNQTVHRLLLPHPSRMYRSELVVDSQMQSIFTDIGKVDFTDPCNYQLIPAVPGISPNSTASTAWLSSDGEALFALPCASGGIFVLKLPPYDIPGMVSVVELKQSSVMQRLLTGWMPTAIRGDQSPSDRPLSLAVHCVEHDAFIFALCQDHKLRMWSYKEQMCLMVADMLEYVPVKKDLRLTAGTGHKLRLAYSPTMGLYLGIYMHAPKRGQFCIFQLVSTESNRYSLDHISSLFTSQETLIDFALTSTDIWALWHDAENQTVVKYINFEHNVAGQWNPVFMQPLPEEEIVIRDDQDPREMYLQSLFTPGQFTNEALCKALQIFCRGTERNLDLSWSELKKEVTLAVENELQGSVTEYEFSQEEFRNLQQEFWCKFYACCLQYQEALSHPLALHLNPHTNMVCLLKKGYLSFLIPSSLVDHLYLLPYENLLTEDETTISDDVDIARDVICLIKCLRLIEESVTVDMSVIMEMSCYNLQSPEKAAEQILEDMITIDVENVMEDICSKLQEIRNPIHAIGLLIREMDYETEVEMEKGFNPAQPLNIRMNLTQLYGSNTAGYIVCRGVHKIASTRFLICRDLLILQQLLMRLGDAVIWGTGQLFQAQQDLLHRTAPLLLSYYLIKWGSECLATDVPLDTLESNLQHLSVLELTDSGALMANRFVSSPQTIVELFFQEVARKHIISHLFSQPKAPLSQTGLNWPEMITAITSYLLQLLWPSNPGCLFLECLMGNCQYVQLQDYIQLLHPWCQVNVGSCRFMLGRCYLVTGEGQKALECFCQAASEVGKEEFLDRLIRSEDGEIVSTPRLQYYDKVLRLLDVIGLPELVIQLATSAITEAGDDWKSQATLRTCIFKHHLDLGHNSQAYEALTQIPDSSRQLDCLRQLVVVLCERSQLQDLVEFPYVNLHNEVVGIIESRARAVDLMTHNYYELLYAFHIYRHNYRKAGTVMFEYGMRLGREVRTLRGLEKQGNCYLAALNCLRLIRPEYAWIVQPVSGAVYDRPGASPKRNHDGECTAAPTNRQIEILELEDLEKECSLARIRLTLAQHDPSAVAVAGSSSAEEMVTLLVQAGLFDTAISLCQTFKLPLTPVFEGLAFKCIKLQFGGEAAQAEAWAWLAANQLSSVITTKESSATDEAWRLLSTYLERYKVQNNLYHHCVINKLLSHGVPLPNWLINSYKKVDAAELLRLYLNYDLLEEAVDLVSEYVDAVLGKGHQYFGIEFPLSATAPMVWLPYSSIDQLLQALGENSANSHNIALSQKILDKLEDYQQKVDKATRDLLYRRTL

These are yes or no findings as the source states them, for the method shown. Binding seen in cells or lysates may run through a third protein. These calls come from enrichment with a bait or labelling near it, and not all partners need be listed. Each block holds one molecule with its values, some of them ahead of it.
